No constants are given. Whether binding was seen depends on the method and setting. Binding seen in cells or lysates may run through a third protein. Some binding calls cover weakened binding; strength is not graded here.
Legend:
Experiment in all cases: co-IP
[1] = target: Xrcc1 (mouse (endogenous in ES cells)) (UniProt Q60596)
[2] = target: Parp1 (mouse (endogenous in ES cells)) (UniProt P11103)
[3] = target: Kap1 (mouse (endogenous in ES cells)) (UniProt Q62318)
[4] = target: topoisomerase 2β (Top2β) (mouse (endogenous in ES cells)) (UniProt Q64511)

The chains behind the UniProt entries cited, without tags or fusion partners.
UniProt Q60596: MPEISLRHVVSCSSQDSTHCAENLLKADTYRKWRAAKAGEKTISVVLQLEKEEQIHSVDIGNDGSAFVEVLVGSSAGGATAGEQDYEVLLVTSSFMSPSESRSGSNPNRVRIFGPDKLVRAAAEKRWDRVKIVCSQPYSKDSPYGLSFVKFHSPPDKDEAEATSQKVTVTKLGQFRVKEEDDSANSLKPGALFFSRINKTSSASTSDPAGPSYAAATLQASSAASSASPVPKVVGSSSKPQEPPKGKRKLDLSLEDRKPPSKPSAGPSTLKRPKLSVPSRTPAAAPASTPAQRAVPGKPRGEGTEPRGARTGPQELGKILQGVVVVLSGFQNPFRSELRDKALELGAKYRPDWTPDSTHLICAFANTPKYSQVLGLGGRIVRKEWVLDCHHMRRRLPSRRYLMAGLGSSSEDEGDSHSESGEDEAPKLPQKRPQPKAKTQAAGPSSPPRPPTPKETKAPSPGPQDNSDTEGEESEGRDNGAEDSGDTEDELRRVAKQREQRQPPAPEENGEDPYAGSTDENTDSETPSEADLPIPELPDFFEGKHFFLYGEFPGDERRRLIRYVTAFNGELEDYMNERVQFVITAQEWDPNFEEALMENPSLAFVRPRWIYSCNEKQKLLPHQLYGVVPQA
UniProt P11103: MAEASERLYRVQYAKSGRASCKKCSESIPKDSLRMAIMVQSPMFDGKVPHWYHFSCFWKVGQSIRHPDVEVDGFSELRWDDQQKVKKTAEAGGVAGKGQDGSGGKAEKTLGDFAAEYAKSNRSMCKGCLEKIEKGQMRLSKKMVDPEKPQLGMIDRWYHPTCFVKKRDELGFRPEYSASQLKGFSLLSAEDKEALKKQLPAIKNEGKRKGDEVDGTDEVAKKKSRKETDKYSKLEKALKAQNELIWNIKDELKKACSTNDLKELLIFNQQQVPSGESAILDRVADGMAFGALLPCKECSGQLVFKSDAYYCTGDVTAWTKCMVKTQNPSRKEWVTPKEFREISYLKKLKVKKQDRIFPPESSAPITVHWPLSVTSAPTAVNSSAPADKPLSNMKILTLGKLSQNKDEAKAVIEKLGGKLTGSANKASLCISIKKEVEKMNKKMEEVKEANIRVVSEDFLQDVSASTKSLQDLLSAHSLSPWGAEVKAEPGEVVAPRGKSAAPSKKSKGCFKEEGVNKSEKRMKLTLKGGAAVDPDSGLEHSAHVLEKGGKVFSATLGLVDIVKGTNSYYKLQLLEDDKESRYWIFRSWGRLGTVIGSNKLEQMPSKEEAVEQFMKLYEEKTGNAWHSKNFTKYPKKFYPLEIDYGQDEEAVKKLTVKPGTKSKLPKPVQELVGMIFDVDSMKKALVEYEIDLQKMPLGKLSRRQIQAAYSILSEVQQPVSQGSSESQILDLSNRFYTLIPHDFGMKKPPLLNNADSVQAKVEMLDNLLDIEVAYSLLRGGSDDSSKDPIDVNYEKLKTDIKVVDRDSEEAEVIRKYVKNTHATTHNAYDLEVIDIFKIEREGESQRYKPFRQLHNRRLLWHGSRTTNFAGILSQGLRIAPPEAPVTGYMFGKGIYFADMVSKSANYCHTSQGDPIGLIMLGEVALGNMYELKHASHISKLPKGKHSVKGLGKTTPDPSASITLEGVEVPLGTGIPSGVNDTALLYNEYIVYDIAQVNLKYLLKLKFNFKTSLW
UniProt Q62318: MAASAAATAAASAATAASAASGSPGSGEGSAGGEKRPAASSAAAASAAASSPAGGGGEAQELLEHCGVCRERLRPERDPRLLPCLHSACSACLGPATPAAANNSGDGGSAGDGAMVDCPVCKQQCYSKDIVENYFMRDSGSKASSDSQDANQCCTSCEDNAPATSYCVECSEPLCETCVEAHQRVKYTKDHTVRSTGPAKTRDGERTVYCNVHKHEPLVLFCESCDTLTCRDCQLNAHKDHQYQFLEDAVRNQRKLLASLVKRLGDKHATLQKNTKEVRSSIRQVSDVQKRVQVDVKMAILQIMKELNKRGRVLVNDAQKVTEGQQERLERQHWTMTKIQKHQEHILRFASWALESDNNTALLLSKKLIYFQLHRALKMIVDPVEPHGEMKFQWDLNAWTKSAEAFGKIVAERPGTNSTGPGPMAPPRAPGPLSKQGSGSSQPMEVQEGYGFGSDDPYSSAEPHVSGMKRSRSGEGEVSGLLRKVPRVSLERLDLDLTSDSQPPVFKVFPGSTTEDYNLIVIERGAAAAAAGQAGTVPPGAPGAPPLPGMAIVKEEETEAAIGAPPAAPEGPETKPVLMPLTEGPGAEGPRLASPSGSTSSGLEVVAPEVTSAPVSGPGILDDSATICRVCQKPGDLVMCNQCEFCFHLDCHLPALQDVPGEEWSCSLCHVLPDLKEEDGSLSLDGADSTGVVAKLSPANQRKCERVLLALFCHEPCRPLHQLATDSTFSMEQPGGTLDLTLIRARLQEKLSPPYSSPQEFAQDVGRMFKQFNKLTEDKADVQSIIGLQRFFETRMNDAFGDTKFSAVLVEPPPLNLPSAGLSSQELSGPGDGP
UniProt Q64511: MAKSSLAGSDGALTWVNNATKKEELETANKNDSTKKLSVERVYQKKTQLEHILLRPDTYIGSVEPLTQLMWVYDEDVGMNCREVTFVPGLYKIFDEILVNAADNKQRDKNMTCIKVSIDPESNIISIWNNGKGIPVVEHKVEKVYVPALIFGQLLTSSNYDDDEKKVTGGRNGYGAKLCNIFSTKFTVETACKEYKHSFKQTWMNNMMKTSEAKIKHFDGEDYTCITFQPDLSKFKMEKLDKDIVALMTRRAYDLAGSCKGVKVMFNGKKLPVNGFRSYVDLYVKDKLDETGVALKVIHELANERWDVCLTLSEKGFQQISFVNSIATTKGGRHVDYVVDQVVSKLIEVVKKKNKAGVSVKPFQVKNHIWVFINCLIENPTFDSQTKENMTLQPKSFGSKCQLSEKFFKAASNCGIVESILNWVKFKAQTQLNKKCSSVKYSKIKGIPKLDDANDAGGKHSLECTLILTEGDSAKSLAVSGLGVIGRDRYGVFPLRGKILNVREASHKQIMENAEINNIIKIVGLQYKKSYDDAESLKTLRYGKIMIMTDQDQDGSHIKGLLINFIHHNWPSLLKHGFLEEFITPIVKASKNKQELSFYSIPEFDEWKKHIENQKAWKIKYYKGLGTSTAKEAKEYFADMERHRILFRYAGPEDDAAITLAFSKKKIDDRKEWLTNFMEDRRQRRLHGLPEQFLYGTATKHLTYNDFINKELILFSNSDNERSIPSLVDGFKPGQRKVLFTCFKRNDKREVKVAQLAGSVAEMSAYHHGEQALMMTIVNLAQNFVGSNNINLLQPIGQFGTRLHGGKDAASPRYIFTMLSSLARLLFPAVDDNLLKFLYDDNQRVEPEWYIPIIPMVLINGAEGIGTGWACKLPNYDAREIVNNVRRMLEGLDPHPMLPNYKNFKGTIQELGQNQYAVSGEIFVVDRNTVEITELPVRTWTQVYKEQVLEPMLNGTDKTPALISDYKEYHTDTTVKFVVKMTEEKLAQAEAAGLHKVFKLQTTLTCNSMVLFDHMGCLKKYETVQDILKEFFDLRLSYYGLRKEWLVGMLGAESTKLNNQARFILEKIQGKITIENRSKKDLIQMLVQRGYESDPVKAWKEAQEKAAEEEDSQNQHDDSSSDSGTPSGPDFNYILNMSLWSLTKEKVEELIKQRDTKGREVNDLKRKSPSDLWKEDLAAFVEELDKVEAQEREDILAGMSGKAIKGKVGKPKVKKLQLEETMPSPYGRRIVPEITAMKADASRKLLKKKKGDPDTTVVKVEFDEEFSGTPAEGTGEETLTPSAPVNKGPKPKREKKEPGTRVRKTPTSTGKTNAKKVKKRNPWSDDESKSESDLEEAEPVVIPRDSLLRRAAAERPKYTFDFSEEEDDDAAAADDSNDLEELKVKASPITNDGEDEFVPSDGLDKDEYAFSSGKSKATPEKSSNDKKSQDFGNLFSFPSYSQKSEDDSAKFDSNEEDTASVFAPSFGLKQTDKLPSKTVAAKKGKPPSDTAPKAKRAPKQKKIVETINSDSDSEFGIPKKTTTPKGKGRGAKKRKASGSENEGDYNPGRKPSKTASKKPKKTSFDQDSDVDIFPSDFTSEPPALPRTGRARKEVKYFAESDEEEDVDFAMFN
UniProt P40201: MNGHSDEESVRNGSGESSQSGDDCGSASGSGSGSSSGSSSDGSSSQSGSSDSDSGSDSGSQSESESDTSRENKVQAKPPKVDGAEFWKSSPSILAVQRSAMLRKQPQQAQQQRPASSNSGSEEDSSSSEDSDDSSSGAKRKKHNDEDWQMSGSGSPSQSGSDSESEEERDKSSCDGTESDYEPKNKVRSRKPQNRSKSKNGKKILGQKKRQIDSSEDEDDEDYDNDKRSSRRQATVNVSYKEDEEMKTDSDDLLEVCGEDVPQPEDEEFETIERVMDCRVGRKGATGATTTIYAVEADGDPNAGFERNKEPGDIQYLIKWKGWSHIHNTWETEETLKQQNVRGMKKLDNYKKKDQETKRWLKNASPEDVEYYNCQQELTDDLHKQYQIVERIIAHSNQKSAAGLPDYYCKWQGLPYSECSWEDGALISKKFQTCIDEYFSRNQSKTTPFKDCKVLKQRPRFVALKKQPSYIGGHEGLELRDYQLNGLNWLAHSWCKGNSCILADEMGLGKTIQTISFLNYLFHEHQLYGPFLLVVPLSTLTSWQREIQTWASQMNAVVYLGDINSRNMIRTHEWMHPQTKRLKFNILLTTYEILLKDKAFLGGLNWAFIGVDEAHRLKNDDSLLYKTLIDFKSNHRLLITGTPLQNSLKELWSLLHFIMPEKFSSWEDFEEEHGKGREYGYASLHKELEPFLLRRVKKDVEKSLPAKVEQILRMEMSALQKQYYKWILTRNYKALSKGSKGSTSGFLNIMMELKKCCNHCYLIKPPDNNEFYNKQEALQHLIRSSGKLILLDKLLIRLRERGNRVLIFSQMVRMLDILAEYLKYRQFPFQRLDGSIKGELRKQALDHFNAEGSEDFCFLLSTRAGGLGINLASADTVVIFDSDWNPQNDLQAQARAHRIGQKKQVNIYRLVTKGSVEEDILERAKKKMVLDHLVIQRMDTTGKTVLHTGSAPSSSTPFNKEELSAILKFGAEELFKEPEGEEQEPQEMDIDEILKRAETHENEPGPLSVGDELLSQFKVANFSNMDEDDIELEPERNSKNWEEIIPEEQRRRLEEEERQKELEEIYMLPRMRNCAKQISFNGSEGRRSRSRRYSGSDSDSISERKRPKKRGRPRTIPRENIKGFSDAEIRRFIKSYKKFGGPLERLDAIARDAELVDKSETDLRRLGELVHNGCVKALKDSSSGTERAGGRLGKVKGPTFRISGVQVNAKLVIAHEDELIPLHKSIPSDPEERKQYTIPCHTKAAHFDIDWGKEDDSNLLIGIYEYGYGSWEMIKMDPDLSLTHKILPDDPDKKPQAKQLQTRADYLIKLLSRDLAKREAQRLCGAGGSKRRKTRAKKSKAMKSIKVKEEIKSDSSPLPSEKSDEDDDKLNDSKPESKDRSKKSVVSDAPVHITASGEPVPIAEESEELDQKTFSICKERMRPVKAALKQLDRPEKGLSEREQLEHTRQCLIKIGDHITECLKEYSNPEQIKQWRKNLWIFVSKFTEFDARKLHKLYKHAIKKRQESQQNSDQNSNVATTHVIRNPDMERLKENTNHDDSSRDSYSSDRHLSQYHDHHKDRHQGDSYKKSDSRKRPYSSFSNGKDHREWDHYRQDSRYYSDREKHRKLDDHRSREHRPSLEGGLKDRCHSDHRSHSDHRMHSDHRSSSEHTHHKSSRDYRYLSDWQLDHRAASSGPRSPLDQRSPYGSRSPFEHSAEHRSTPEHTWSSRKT

binding [1]: no binding
binding [2]: binds
binding [3]: binds
binding [4]: binds
Substance: Chd1 (from UniProt P40201 1-1711)

Source: doi:10.1101/659995
